{"sequences": {"note": "By UniProt entry, the sequences of proteins in these tests, tags left out. Where a name states a change or a piece, a line headed by the entry shows the natural chain unless it says otherwise.", "UniProt P18054": "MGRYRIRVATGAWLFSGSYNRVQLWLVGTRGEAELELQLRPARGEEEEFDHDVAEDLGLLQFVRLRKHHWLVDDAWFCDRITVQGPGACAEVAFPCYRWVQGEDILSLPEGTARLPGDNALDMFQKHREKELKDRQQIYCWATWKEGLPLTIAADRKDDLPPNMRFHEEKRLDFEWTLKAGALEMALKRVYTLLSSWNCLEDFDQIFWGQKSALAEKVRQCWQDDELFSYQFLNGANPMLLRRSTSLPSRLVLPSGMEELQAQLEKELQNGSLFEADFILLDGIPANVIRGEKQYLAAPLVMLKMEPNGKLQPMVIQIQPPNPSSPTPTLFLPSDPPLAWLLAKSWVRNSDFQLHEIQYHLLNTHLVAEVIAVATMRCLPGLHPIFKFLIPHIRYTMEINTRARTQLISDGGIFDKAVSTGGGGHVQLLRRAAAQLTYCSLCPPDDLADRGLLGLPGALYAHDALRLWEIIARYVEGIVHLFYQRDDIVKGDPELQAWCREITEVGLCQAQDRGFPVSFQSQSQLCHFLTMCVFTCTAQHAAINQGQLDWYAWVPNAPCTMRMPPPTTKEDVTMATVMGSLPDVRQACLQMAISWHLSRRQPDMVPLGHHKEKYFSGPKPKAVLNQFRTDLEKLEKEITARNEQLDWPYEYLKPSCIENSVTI"}, "source": "PubChem BioAssay AID1671190", "about": "(National Center for Advancing Translational Sciences (NCATS), 2021)", "note": "Values joined by “and” are separate entries in the source; they are usually repeats but may differ in a detail not shown here. Equal entries are not always repeated. The campaign covered roughly 580,000 compounds. About 6,100 (1.1%) were called active. Inconclusive means that the source gave no clear call. Such entries were picked first, then a sample of the others. Calls follow the shape of the dose curve; as a rule, active = well fitted inhibition curve with a large enough effect; inconclusive = small, poorly fitted or top-dose-only effect, or another doubt; inactive = no such curve, though single readings can be large or run the other way. A potency beside an inconclusive call is a rough fit, not a confirmed value. % is scaled to controls: 0 for no effect and ±100 for the full control effect; potency is read from the fitted curve at half-maximal effect.", "data": [{"target": "Polyunsaturated fatty acid lipoxygenase ALOX12 (Homo sapiens) (UniProt P18054)", "assay": "Primary qHTS assay for inhibitors of human arachidonate 12S-lipoxygenase (ALOX12): Round 2", "settings": "purified 12hLO, xylenol orange hydroperoxide absorbance; activity change, negative = inhibition: at 108 µM (top of the series) unless noted", "in_short": "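Purified human 12hLO at 150 nM in 25 mM Hepes, 0.01% Triton X-100, pH 7.0, preincubated 15 min at room temperature with compound. Reaction started with 40 uM arachidonic acid, 30 min at room temperature. Hydroperoxide measured by Fe-xylenol orange, 573/405 nm absorbance ratio.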", "values": [{"compound": "CCCCCCCCCNc1c2c(nc3ccccc13)CC(C)(C)CC2=O", "Potency": "inconclusive: 0.501 µM [inhibitor, full curve, poor fit]"}, {"compound": "Cc1nc2ccccc2c(=O)n1/N=C/c1c(O)ccc2oc3c(c12)CCCC3", "Potency": "inconclusive: 31.6 µM [inhibitor, partial curve, poor fit]"}, {"compound": "O=C(CC1(O)C(=O)N(Cc2ccccc2)c2ccccc21)c1ccc2c(c1)OCO2", "note": "(stereo not given)", "Potency": "inconclusive: 56.2 µM [inhibitor, partial curve, poor fit]"}, {"compound": "CCC/C(C#CCCN1C(=O)c2ccccc2C1=O)=C1/c2ccccc2C(=O)N1c1ccccc1", "Potency": "inconclusive: 44.7 µM [inhibitor, partial curve]"}, {"compound": "CCc1ccc2oc(=O)cc(CN3CCN(CC)CC3)c2c1", "Potency": "inconclusive: 89.1 µM [inhibitor, partial curve, poor fit]"}, {"compound": "COCCN1C(=O)C(=O)/C(=C(/O)c2ccc(OC(C)C)cc2)C1c1cccnc1", "note": "(stereo not given)", "Potency": "inconclusive: 2 µM [inhibitor, full curve, poor fit]"}, {"compound": "Cc1ccccc1OCC(=O)Nc1nnc(-c2ccncc2)s1", "Potency": "inconclusive: 100 µM [inhibitor, partial curve, poor fit]"}, {"compound": "CC1Cc2nc(SCC(=O)NCc3ccco3)n(Cc3ccccc3)c(=O)c2S1", "note": "(stereo not given)", "Potency": "inconclusive: 44.7 µM [inhibitor, partial curve, poor fit]"}, {"compound": "CC1Sc2ccc(S(=O)(=O)N3CCC(C(=O)Nc4ccc(Cl)cc4)CC3)cc2NC1=O", "note": "(stereo not given)", "Potency": "inactive"}, {"compound": "CCOC(=O)CN1C(=O)S/C(=C\\c2ccc3c(c2)OCO3)C1=O", "Potency": "inconclusive: 79.4 µM [inhibitor, single point]"}, {"compound": "CCOc1ccc(S(=O)(=O)Nc2nc3ccccc3nc2Nc2ccc(OC)cc2)cc1", "Potency": "inactive"}, {"compound": "O=C(CSc1nc2[nH]ncc2c(=O)[nH]1)Nc1ccc(OC(F)(F)F)cc1", "Potency": "inconclusive: 50.1 µM [inhibitor, partial curve, poor fit]"}, {"compound": "CCOc1ccc(/C=C2\\SC(=S)N(NS(=O)(=O)c3ccccc3)C2=O)cc1OC", "Potency": "inconclusive: 126 µM [inhibitor, single point]"}, {"compound": "COc1ccc(Nc2cc(-c3ccccc3OC)nc3c(C)noc23)cc1OC", "Potency": "inconclusive: 112 µM [inhibitor, partial curve, poor fit]"}, {"compound": "CC(C)Nc1ncnc2c1cnn2Cc1ccccc1Cl", "Potency": "inconclusive: 112 µM [inhibitor, single point]"}, {"compound": "Cn1c(=O)c(=O)n(C)c2cc(N3CCOCC3)c(NS(=O)(=O)c3ccc(C(C)(C)C)cc3)cc21", "Potency": "inconclusive: 35.5 µM [inhibitor, partial curve, poor fit]"}, {"compound": "COc1ccc(N(C(=O)c2cccnc2)S(=O)(=O)c2ccc(Cl)cc2)cc1", "Potency": "inconclusive: 12.6 µM [inhibitor, partial curve, poor fit]"}, {"compound": "O=C1CC(c2ccccc2)N(S(=O)(=O)c2ccc3c(c2)CCC3)CCCCCN1", "note": "(stereo not given)", "Potency": "inconclusive: 89.1 µM [inhibitor, single point]"}, {"compound": "CC1=NN(C(=O)c2ccco2)C(O)(c2ccccc2)C1", "note": "(stereo not given)", "Potency": "inactive"}, {"compound": "Cc1ccc(NC(=O)C(=O)Nc2ccc(C)cn2)nc1", "Potency": "inactive"}, {"compound": "C[C@H]1CN([C@@H](C)CO)C(=O)c2cc(C3=CCCC3)cnc2O[C@@H]1CN(C)C(=O)c1ccncc1", "Potency": "inconclusive: 44.7 µM [inhibitor, single point]"}, {"compound": "CC(C)=CC1C(C(=O)Nc2cccc(OC(F)F)c2C)C1(C)C", "note": "(stereo not given)", "Potency": "inconclusive: 100 µM [inhibitor, partial curve, poor fit]"}, {"compound": "CCOC(=O)Cn1nnnc1C(CC)N(Cc1cc2ccc(C)cc2[nH]c1=O)C1CCCC1", "note": "(stereo not given)", "Potency": "inactive"}, {"compound": "Cc1oc2cc(OCC(=O)Nc3ccc4c(c3)OCCO4)ccc2c(=O)c1-c1ccccc1", "Potency": "inconclusive: 0.251 µM [inhibitor, full curve, poor fit]"}, {"compound": "Cc1ccc(N/N=C/c2ccc(N3CCOCC3)cc2)cc1C", "Potency": "active: 8.91 µM"}, {"compound": "O=C(C1CCCCN1S(=O)(=O)c1ccccc1)N1CCN(Cc2ccccc2)CC1", "note": "(stereo not given)", "Potency": "inconclusive: 126 µM [inhibitor, partial curve, poor fit]"}, {"compound": "Cc1cccc(C)c1NC(=O)CN1CCN(Cc2csc(-c3cccc(Br)c3)n2)CC1", "Potency": "inconclusive: 35.5 µM [inhibitor, partial curve, poor fit]"}, {"compound": "CCc1nnc(NC(=O)CCN2C(=O)C3CCCCC3C2=O)s1", "note": "(stereo not given)", "Potency": "inconclusive: 44.7 µM [inhibitor, partial curve, poor fit]"}, {"compound": "CN1CCN(NC(=O)c2cc(-c3ccc(Br)s3)nc3ccccc23)CC1", "Potency": "inconclusive: 63.1 µM [inhibitor, partial curve, poor fit]"}, {"compound": "CCOc1ccc2nc(Nc3nc(C)c(Cc4ccccc4)c(=O)[nH]3)nc(C)c2c1", "Potency": "inactive"}, {"compound": "Cc1ccc(C2c3[nH]c4ccccc4c3CCN2C(=O)CCC2CCCC2)cc1", "note": "(stereo not given)", "Potency": "inconclusive: 141 µM [inhibitor, partial curve, poor fit]"}, {"compound": "O=C(COC(=O)C1(c2ccccc2F)CCCC1)NCc1cccs1", "Potency": "inactive"}, {"compound": "CCOC(=O)[C@]12CCC=C1N(Cc1ccco1)C(=O)[C@H](CC(=O)N1CCC(c3ccccc3)CC1)C2", "Potency": "inconclusive: 100 µM [inhibitor, partial curve, poor fit]"}, {"compound": "C[C@]12CCC(=O)CC1=CCC1C3CC=C(C#N)[C@@]3(C)CC[C@@]12O", "note": "(stereo not given in full)", "Potency": "inconclusive: 28.2 µM [inhibitor, single point]"}, {"compound": "O=C(CSc1nc(=O)n2ccccc2n1)N1CCN(c2ccccc2)CC1", "Potency": "inconclusive: 5.62 µM [inhibitor, full curve, poor fit]"}, {"compound": "Cc1noc(-c2ccc3c(c2)OCO3)c1C(=O)NCCC(c1ccccc1)c1ccccc1", "Potency": "inconclusive: 10 µM [inhibitor, full curve]"}, {"compound": "Cc1ccc(Cl)cc1-n1ncc2c(Nc3cccc(C)c3C)ncnc21", "Potency": "inconclusive: 112 µM [inhibitor, partial curve, poor fit]"}, {"compound": "Cc1ccc(Nc2c(-c3ccccn3)nc3cccc(C)n23)cc1", "Potency": "inconclusive: 44.7 µM [inhibitor, partial curve, poor fit]"}, {"compound": "CCOC(=O)C1=C(C)Nc2nc(SCC(=O)OC)nn2C1c1cc(F)cc(F)c1", "note": "(stereo not given)", "Potency": "inconclusive: 501 nM [inhibitor, full curve, poor fit] and inconclusive: 4.47 µM [inhibitor, full curve, poor fit]"}, {"compound": "COC(=O)c1ccc(NC(=O)N2CCCC(c3nn[nH]n3)C2)cc1", "note": "(stereo not given)", "Potency": "inconclusive: 1 µM [inhibitor, full curve, poor fit]"}, {"compound": "CC(=O)n1nc(NCc2c(F)cccc2Cl)nc1NCc1c(F)cccc1Cl", "Potency": "inconclusive: 39.8 µM [inhibitor, partial curve, poor fit]"}, {"compound": "Cc1ccc(NC(=O)Cn2ccn(-c3ccc(F)c(F)c3)c(=O)c2=O)cc1C", "Potency": "inconclusive: 89.1 µM [inhibitor, single point]"}, {"compound": "Cc1onc(-c2c(F)cccc2Cl)c1C(=O)Nc1ccc(S(=O)(=O)Nc2ncccn2)cc1", "Potency": "inconclusive: 89.1 µM [inhibitor, single point]"}, {"compound": "C(#Cc1ccccc1)CN1CCN(c2ccccn2)CC1", "Potency": "inconclusive: 15.8 µM [inhibitor, partial curve, poor fit] and inconclusive: 50.1 µM [inhibitor, partial curve, poor fit]"}, {"compound": "COCCCNc1nc2c([S+](=O)([O-])c3cccnc3)nnn2c2ccccc12", "activity change, negative = inhibition": "inactive: 0.439% [at 6.33 µM]"}, {"compound": "CCOC(=O)c1c(NC(=S)NC)sc2c1CCCC2", "Potency": "inconclusive: 44.7 µM [inhibitor, single point]"}, {"compound": "Clc1ccccc1-c1nccc(-n2ccnc2)n1", "Potency": "inconclusive: 17.8 µM [inhibitor, full curve, poor fit]"}, {"compound": "CN(c1cc(Cl)c2c(c1)OCO2)c1cc2c(c3c1ccn3C)C1CCC2C1", "note": "(stereo not given)", "Potency": "inconclusive: 39.8 µM [inhibitor, single point]"}, {"compound": "CCCCN1C(=O)C2(CCN(C(=O)CC(C)(C)C)CC2)Nc2ccccc21", "Potency": "inactive"}, {"compound": "CCC1CCC2(CC1)NC(=O)N(CC(=O)Nc1cccc(S(=O)(=O)N(C)c3ccccc3)c1)C2=O", "note": "(stereo not given)", "Potency": "inconclusive: 112 µM [inhibitor, single point]"}, {"compound": "COc1cc2c(C#CCCCO)c(-c3ccc(C#N)cc3)oc(=O)c2cc1OC", "Potency": "inconclusive: 79.4 µM [inhibitor, single point]"}, {"compound": "N#CCN1C(=O)C(=O)N(Cc2cccc(Cl)c2)C1=O", "Potency": "inactive"}, {"compound": "O=C(NCC(F)(F)F)c1ccc(S(=O)(=O)Nc2ccccc2N2CCCC2)cc1", "Potency": "inconclusive: 56.2 µM [inhibitor, partial curve, poor fit]"}, {"compound": "COc1ccc(NC(=S)N(CCCN2CCN(C)CC2)Cc2cccs2)cc1", "Potency": "inactive"}, {"compound": "C=C(C)CN=c1scc(C)n1/N=C/c1ccco1", "Potency": "inactive"}, {"compound": "N#Cc1ccc(-c2csc(NC(=O)/C=C/c3cccs3)n2)cc1", "Potency": "inactive"}, {"compound": "COc1ccc(C2=Nn3c(nnc3-c3ccccc3F)SC2)cc1OC1CCCC1", "Potency": "inconclusive: 20 µM [inhibitor, full curve, poor fit]"}, {"compound": "COc1ccc(C)cc1NC(=O)CSCc1ccccc1C", "Potency": "inactive"}, {"compound": "N#CC(c1nc2ccccc2nc1N1CCOCC1)S(=O)(=O)c1ccccc1", "note": "(stereo not given)", "Potency": "inconclusive: 56.2 µM [inhibitor, partial curve, poor fit]"}, {"compound": "NC(=O)CNC(=O)[C@@H]1CC2(CC(c3cccc([N+](=O)[O-])c3)=NO2)CN1C(=O)c1ccccc1", "note": "(stereo not given in full)", "Potency": "inconclusive: 50.1 µM [inhibitor, partial curve, poor fit]"}]}]}
